Experimental data: publication PMC9160021, “Artificial intelligence-assisted cryoEM structure of Bfr2-Lcp5 complex observed in the yeast small subunit processome” (Communications Biology, 2022)
Results are given in words; binding and its absence hold for the method and conditions named. For some assays here: Binding seen in cells or lysates may run through a third protein. Some results given as binding are weak or reduced against the parent protein; the word gives no strength. Sequences can lack the tags named with a protein.

What was measured:
[1] = target: T1, MBP-Bfr2(266–432) (S. cerevisiae (genomic DNA of BY4741 strain)) (UniProt Q06631); experiment: pull-down; in cell: E. coli cells expressing MBP-Bfr2(266–432) or Lcp5(1–160), harvested as a mixture of both or individually, lysed, loaded on and eluted from an amylose column; SDS-PAGE
T1 sequence: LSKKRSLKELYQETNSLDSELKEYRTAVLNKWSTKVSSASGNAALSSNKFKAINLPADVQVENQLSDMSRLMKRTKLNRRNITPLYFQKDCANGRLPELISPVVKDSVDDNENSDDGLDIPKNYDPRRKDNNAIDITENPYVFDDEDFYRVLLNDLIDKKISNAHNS

[2] = target: T2, MBP-Bfr2(360–432) (S. cerevisiae (genomic DNA of BY4741 strain)) (UniProt Q06631); experiment: pull-down; in vitro: purified MBP, MBP-Bfr2(360–432) or MBP-Bfr2(266–432) as bait with purified His-Lcp5(1–160); both purified
T2 sequence: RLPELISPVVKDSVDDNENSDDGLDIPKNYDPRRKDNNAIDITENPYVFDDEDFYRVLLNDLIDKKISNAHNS

Row | Binder | binding [1] | binding [2]
1 | Lcp5(1–160), untagged (domain or fragment, UniProt P40079 1-160) MSELNALLKDINGSLTATSESLERLSGIYSNSATDEIPESNQLHEHLFYDAKKPAEKVSLLSLKNGSMLGYINSLLMLIGNRLDDECKDPSAMDARERSIQHRVVLERGVKPLEKKLAYQLDKLTRAYVKMEKEYKDAEKRALEKSTLVNHSGNDDSEDD | binds | –
2 | His-Lcp5(1–160) (domain or fragment, S. cerevisiae, UniProt P40079 1-160, looked up, Lcp5, S. cerevisiae, residues 1–160, polyhistidine tagged; The methods describe only the cloning of the untagged Lcp5(1–160); also called polyhistidine tagged Lcp5 fragment 1–160; source: bacteria expression host, purified) MSELNALLKDINGSLTATSESLERLSGIYSNSATDEIPESNQLHEHLFYDAKKPAEKVSLLSLKNGSMLGYINSLLMLIGNRLDDECKDPSAMDARERSIQHRVVLERGVKPLEKKLAYQLDKLTRAYVKMEKEYKDAEKRALEKSTLVNHSGNDDSEDD | – | no binding
